Literature values in patent publication US20220050096A1, “ANALYTE-SENSITIVE PROBES AND CONTACT LENS FOR DIAGNOSIS OF OCULAR PATHOLOGIES” (University Of Maryland, Baltimore, priority 2020, published 2022).
For at least one compound, name, drawing or mass did not settle the structure.

Conditions: cited from earlier work

In the case of Cc1ccc(N(CC(=O)O)CC(=O)O)c(OCCOc2cc(-c3c4ccc(=[N+](C)C)cc-4oc4cc(N(C)C)ccc34)ccc2N(CC(=O)O)CC(=O)O)c1 [Rhod-2], the “relative increase in fluorescence upon cation binding” value is given as 100-fold.
